# The list shows a part of the results.
# B1: Epa19 (Candida glabrata) (protein)
# chain: MGSSHHHHHHSSGLVPRGSHMASSKDPTRFPIGCSPQVLKTQPGLAVKLYSYGHPVPGCSYITYQYPDFPRSGYKKERKLADITGVNGKIDIDLKPNDPCRVLTGHLPSNYNYPDTLTYTNFTMILYGYFQPKVTGYHTFNLEADDLLFMNLGAGNAFDCCKAESTLDNFGNYQSYSLWGSDYAKANITVFLVSGVYYPIRLFYVNRDNNAVIDFSFTTEFDKEKVHDFTSYFFSASDGEQCPGSV
# What was measured:
# Assay in all cases: glycan array binding signal (z-score within array); higher = stronger binding
# Settings in all cases: glycan notation: IUPAC condensed, linker removed
# Gal(a1-3)Gal(b1-4)GlcNAc = molecular target: Gal(a1-3)Gal(b1-4)GlcNAc
# Summary of the method: (§1)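 Glycan array data were curated from 3228 arrays in the Consortium for Functional Glycomics database and kept only where the protein sequence was available. Glycan names were converted to IUPAC-condensed notation, and columns mapping to the same glycan were averaged. The binding signal is a within-array Z-score, averaged across arrays of the same protein sequence at different concentrations or buffers and across linkers. Negative Z-scores can be read as non-binding.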
# [1] = molecular target: Gal(a1-3)Gal(b1-4)GlcNAc(b1-2)Man
# Summary of the method: as §1
# [2] = molecular target: Gal(a1-3)Gal(b1-4)GlcNAc(b1-2)Man(a1-3)[Gal(a1-3)Gal(b1-4)GlcNAc(b1-2)Man(a1-6)]Man(b1-4)GlcNAc(b1-4)GlcNAc
# Summary of the method: as §1
# [3] = molecular target: Gal(a1-3)Gal(b1-4)GlcNAc(b1-3)GalNAc
# Summary of the method: as §1
# [4] = molecular target: Gal(a1-3)Gal(b1-4)GlcNAc(b1-6)GalNAc
# Summary of the method: as §1
# [5] = molecular target: Gal(a1-3)Gal(b1-4)[Fuc(a1-3)]GlcNAc
# Summary of the method: as §1
# [6] = molecular target: Gal(a1-3)Gal(b1-4)[Fuc(a1-3)]GlcNAc(b1-2)Man(a1-3)[Gal(a1-3)Gal(b1-4)[Fuc(a1-3)]GlcNAc(b1-2)Man(a1-6)]Man(b1-4)GlcNAc(b1-4)GlcNAc
# Summary of the method: as §1
# Gal(a1-3)GalNAc = molecular target: Gal(a1-3)GalNAc
# Summary of the method: as §1
# [7] = molecular target: Gal(a1-3)[Gal(a1-4)]Gal(b1-4)GlcNAc
# Summary of the method: as §1
# [8] = molecular target: Gal(a1-4)Gal(b1-3)GlcNAc(b1-2)Man(a1-3)[Gal(a1-4)Gal(b1-3)GlcNAc(b1-2)Man(a1-6)]Man(b1-4)GlcNAc(b1-4)GlcNAc
# Summary of the method: as §1
# Gal(a1-4)Gal(b1-4)Glc = molecular target: Gal(a1-4)Gal(b1-4)Glc
# Summary of the method: as §1
# Gal(a1-4)Gal(b1-4)GlcNAc = molecular target: Gal(a1-4)Gal(b1-4)GlcNAc
# Summary of the method: as §1
# [9] = molecular target: Gal(a1-4)Gal(b1-4)GlcNAc(b1-2)Man(a1-3)[Gal(a1-4)Gal(b1-4)GlcNAc(b1-2)Man(a1-6)]Man(b1-4)GlcNAc(b1-4)GlcNAc
# Summary of the method: as §1
# [10] = molecular target: Gal(a1-4)Gal(b1-4)GlcNAc(b1-3)Gal(b1-4)Glc
# Summary of the method: as §1
# Gal(a1-4)GlcNAc = molecular target: Gal(a1-4)GlcNAc
# Summary of the method: as §1
# Gal(a1-6)Glc = molecular target: Gal(a1-6)Glc
# Summary of the method: as §1
# Gal(b1-2)Gal = molecular target: Gal(b1-2)Gal
# Summary of the method: as §1
# Gal(b1-3)Gal = molecular target: Gal(b1-3)Gal
# Summary of the method: as §1
# Gal(b1-3)Gal(b1-4)GlcNAc = molecular target: Gal(b1-3)Gal(b1-4)GlcNAc
# Summary of the method: as §1
# Gal(b1-3)GalNAc = molecular target: Gal(b1-3)GalNAc
# Summary of the method: as §1
# [11] = molecular target: Gal(b1-3)GalNAc(a1-3)[Fuc(a1-2)]Gal(b1-4)Glc
# Summary of the method: as §1
# [12] = molecular target: Gal(b1-3)GalNAc(a1-3)[Fuc(a1-2)]Gal(b1-4)GlcNAc
# Summary of the method: as §1
# Gal(b1-3)GalNAc(b1-3)Gal = molecular target: Gal(b1-3)GalNAc(b1-3)Gal
# Summary of the method: as §1
# [13] = molecular target: Gal(b1-3)GalNAc(b1-3)Gal(a1-4)Gal(b1-4)Glc
# Summary of the method: as §1
# [14] = molecular target: Gal(b1-3)GalNAc(b1-4)Gal(b1-4)Glc
# Summary of the method: as §1
# [15] = molecular target: Gal(b1-3)GalNAc(b1-4)[Neu5Ac(a2-3)]Gal(b1-4)Glc
# Summary of the method: as §1
# Gal(b1-3)GlcNAc = molecular target: Gal(b1-3)GlcNAc
# Summary of the method: as §1
# [16] = molecular target: Gal(b1-3)GlcNAc(a1-3)Gal(b1-4)GlcNAc
# Summary of the method: as §1
# [17] = molecular target: Gal(b1-3)GlcNAc(a1-6)Gal(b1-4)GlcNAc
# Summary of the method: as §1
# Gal(b1-3)GlcNAc(b1-2)Man = molecular target: Gal(b1-3)GlcNAc(b1-2)Man
# Summary of the method: as §1
# [18] = molecular target: Gal(b1-3)GlcNAc(b1-2)Man(a1-3)[Gal(b1-3)GlcNAc(b1-2)Man(a1-6)]Man(b1-4)GlcNAc(b1-4)GlcNAc
# Summary of the method: as §1
# [19] = molecular target: Gal(b1-3)GlcNAc(b1-2)Man(a1-3)[Gal(b1-3)GlcNAc(b1-2)Man(a1-6)]Man(b1-4)GlcNAc(b1-4)[Fuc(a1-6)]GlcNAc
# Summary of the method: as §1
# [20] = molecular target: Gal(b1-3)GlcNAc(b1-2)Man(a1-3)[GlcNAc(b1-4)][Gal(b1-3)GlcNAc(b1-2)Man(a1-6)]Man(b1-4)GlcNAc(b1-4)GlcNAc
# Summary of the method: as §1
# [21] = molecular target: Gal(b1-3)GlcNAc(b1-2)[Gal(b1-3)GlcNAc(b1-6)]Man(a1-6)[Gal(b1-3)GlcNAc(b1-2)Man(a1-3)]Man(b1-4)GlcNAc(b1-4)GlcNAc
# Summary of the method: as §1
# [22] = molecular target: Gal(b1-3)GlcNAc(b1-3)Gal(b1-3)GlcNAc
# Summary of the method: as §1
# [23] = molecular target: Gal(b1-3)GlcNAc(b1-3)Gal(b1-4)Glc
# Summary of the method: as §1
# [24] = molecular target: Gal(b1-3)GlcNAc(b1-3)Gal(b1-4)GlcNAc
# Summary of the method: as §1
binder,measurement,setting,value
B1,glycan array binding signal (z-score),Gal(a1-3)Gal(b1-4)GlcNAc,-0.173
same,glycan array binding signal (z-score),[1],-0.692
same,glycan array binding signal (z-score),[2],-0.409
same,glycan array binding signal (z-score),[3],0.181
same,glycan array binding signal (z-score),[4],-0.287
same,glycan array binding signal (z-score),[5],-0.45
same,glycan array binding signal (z-score),[6],2.47
same,glycan array binding signal (z-score),Gal(a1-3)GalNAc,0.456
same,glycan array binding signal (z-score),[7],-0.339
same,glycan array binding signal (z-score),[8],-0.21
same,glycan array binding signal (z-score),Gal(a1-4)Gal(b1-4)Glc,0.975
same,glycan array binding signal (z-score),Gal(a1-4)Gal(b1-4)GlcNAc,0.377
same,glycan array binding signal (z-score),[9],-0.109
same,glycan array binding signal (z-score),[10],-0.345
same,glycan array binding signal (z-score),Gal(a1-4)GlcNAc,0.392
same,glycan array binding signal (z-score),Gal(a1-6)Glc,-0.012
same,glycan array binding signal (z-score),Gal(b1-2)Gal,-0.099
same,glycan array binding signal (z-score),Gal(b1-3)Gal,0.032
same,glycan array binding signal (z-score),Gal(b1-3)Gal(b1-4)GlcNAc,-0.035
same,glycan array binding signal (z-score),Gal(b1-3)GalNAc,-0.306
same,glycan array binding signal (z-score),[11],0.405
same,glycan array binding signal (z-score),[12],-0.54
same,glycan array binding signal (z-score),Gal(b1-3)GalNAc(b1-3)Gal,-0.043
same,glycan array binding signal (z-score),[13],0.604
same,glycan array binding signal (z-score),[14],0.316
same,glycan array binding signal (z-score),[15],-0.041
same,glycan array binding signal (z-score),Gal(b1-3)GlcNAc,-0.342
same,glycan array binding signal (z-score),[16],0.488
same,glycan array binding signal (z-score),[17],-0.414
same,glycan array binding signal (z-score),Gal(b1-3)GlcNAc(b1-2)Man,0.566
same,glycan array binding signal (z-score),[18],-0.15
same,glycan array binding signal (z-score),[19],-0.254
same,glycan array binding signal (z-score),[20],-0.063
same,glycan array binding signal (z-score),[21],0.35
same,glycan array binding signal (z-score),[22],0.436
same,glycan array binding signal (z-score),[23],-0.323
same,glycan array binding signal (z-score),[24],-0.724

# Two entries picked at random from those above, as already listed:
binder,measurement,setting,value
B1,glycan array binding signal (z-score),Gal(a1-4)Gal(b1-4)Glc,0.975
same,glycan array binding signal (z-score),Gal(a1-6)Glc,-0.012

# — the supplement of paper PMC8728848
